The supplement of paper PMC10849652
The other results are listed elsewhere or left out.

The chains behind the UniProt entries cited, without tags or fusion partners. Where a name states a change or a piece, a line headed by the entry shows the natural chain unless it says otherwise.
UniProt P42167: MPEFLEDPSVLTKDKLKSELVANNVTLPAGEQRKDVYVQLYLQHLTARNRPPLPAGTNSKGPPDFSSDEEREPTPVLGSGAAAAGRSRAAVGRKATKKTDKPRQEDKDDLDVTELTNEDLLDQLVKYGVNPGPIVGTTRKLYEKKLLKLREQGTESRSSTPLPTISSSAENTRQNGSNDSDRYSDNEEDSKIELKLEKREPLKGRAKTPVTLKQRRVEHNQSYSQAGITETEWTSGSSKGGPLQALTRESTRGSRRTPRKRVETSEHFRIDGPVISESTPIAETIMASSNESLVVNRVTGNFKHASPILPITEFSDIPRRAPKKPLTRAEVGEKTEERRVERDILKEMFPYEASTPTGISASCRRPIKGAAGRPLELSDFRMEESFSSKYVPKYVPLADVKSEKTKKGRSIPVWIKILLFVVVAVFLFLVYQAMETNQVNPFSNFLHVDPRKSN
UniProt Q9BRN9: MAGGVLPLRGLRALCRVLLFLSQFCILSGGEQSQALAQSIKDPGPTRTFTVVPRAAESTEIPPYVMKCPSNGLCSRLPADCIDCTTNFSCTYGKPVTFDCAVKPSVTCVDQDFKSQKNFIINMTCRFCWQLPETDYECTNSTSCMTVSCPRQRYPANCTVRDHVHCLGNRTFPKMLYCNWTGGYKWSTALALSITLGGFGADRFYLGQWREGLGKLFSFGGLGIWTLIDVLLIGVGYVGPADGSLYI
UniProt O14763, whole entry, looked up: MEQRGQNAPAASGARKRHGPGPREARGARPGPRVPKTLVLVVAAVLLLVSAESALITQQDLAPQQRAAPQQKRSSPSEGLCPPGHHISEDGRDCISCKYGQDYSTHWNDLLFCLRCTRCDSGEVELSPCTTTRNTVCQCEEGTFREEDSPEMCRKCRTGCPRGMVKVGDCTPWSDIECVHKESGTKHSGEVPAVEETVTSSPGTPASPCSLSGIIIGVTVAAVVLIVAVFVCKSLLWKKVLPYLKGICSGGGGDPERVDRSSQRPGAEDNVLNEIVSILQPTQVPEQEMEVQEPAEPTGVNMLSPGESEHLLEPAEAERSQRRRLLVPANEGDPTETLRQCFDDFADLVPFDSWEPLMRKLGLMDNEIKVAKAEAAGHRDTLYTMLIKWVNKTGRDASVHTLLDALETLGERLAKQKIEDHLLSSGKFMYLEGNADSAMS
UniProt O94886: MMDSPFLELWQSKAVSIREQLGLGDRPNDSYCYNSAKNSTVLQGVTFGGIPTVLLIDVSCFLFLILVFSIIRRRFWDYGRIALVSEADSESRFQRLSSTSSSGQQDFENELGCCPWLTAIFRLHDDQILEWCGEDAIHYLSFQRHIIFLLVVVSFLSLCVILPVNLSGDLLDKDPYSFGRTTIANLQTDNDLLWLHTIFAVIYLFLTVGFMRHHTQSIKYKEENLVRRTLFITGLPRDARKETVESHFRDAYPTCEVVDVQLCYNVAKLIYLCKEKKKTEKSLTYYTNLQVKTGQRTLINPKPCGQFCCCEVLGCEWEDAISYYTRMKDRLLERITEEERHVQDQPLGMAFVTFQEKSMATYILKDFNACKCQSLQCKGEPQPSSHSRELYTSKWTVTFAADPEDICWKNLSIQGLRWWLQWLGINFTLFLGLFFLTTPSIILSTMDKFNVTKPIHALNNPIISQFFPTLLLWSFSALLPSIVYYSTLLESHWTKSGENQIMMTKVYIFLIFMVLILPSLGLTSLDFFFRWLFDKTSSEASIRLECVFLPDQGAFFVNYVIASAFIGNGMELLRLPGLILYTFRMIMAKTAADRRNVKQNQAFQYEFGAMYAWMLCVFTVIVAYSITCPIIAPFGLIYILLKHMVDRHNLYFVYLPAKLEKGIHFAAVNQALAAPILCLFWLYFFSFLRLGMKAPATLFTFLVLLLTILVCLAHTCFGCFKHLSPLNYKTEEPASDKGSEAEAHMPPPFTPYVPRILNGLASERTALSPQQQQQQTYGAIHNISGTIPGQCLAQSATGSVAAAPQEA
UniProt Q9NWD8: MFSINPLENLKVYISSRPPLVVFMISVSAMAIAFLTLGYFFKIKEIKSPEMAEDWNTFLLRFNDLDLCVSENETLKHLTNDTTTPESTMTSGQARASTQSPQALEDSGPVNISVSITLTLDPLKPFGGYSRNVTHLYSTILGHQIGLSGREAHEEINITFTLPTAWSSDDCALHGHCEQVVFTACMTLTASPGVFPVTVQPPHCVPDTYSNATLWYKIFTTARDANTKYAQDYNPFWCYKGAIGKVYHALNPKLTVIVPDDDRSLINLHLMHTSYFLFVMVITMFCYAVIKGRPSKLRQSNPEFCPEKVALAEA
UniProt P49755: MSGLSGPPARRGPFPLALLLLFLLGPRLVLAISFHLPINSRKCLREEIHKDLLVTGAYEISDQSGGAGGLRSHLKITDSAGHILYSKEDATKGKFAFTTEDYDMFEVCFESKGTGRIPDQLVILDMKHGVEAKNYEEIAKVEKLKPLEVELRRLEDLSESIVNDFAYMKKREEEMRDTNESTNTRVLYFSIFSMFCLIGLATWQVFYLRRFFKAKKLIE
UniProt Q9NVV0: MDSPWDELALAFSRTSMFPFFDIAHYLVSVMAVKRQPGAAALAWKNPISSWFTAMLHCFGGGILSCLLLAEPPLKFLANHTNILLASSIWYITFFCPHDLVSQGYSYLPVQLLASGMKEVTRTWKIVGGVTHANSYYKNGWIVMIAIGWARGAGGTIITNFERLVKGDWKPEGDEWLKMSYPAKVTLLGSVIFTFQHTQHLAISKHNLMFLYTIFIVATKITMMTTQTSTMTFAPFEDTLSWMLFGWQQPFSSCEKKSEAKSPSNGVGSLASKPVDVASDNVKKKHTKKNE
UniProt Q9BTV4: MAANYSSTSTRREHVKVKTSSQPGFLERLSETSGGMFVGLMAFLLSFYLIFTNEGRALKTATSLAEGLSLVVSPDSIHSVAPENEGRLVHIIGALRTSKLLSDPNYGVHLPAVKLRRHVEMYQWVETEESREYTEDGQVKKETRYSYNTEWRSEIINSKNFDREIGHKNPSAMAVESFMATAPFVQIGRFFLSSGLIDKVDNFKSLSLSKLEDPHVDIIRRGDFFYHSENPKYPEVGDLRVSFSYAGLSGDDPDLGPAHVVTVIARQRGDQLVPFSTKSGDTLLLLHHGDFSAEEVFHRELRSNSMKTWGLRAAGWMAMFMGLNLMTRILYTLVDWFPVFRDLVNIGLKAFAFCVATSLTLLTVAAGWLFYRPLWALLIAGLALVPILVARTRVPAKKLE
UniProt Q7Z7H5: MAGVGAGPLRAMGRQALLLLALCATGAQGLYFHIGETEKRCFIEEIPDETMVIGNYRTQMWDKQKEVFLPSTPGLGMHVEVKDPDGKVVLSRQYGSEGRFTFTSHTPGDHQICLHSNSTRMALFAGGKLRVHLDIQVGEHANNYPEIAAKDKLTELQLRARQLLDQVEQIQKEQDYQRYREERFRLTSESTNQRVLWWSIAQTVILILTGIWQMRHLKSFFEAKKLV
UniProt Q8NBN3: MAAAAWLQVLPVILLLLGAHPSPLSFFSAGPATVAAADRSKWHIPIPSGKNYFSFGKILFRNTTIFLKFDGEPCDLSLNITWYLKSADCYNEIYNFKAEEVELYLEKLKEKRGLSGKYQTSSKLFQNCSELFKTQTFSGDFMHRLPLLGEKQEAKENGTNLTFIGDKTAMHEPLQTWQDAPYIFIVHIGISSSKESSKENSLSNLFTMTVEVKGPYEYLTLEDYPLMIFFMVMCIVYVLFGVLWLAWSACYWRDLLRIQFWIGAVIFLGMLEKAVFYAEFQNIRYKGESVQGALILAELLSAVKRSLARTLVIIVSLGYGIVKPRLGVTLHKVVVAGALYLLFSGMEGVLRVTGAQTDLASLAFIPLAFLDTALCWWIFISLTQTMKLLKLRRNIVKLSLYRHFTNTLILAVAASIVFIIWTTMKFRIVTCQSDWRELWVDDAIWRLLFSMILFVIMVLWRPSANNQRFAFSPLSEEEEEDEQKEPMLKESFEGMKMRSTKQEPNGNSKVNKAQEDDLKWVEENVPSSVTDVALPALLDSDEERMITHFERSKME
UniProt Q9BVK6: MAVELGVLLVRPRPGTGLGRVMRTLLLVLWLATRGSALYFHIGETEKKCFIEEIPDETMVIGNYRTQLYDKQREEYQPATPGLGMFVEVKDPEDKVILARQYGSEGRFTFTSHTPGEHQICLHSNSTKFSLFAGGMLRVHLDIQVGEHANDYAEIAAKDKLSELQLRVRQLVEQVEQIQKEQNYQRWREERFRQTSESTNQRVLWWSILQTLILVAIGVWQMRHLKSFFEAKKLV
UniProt Q4ZIN3: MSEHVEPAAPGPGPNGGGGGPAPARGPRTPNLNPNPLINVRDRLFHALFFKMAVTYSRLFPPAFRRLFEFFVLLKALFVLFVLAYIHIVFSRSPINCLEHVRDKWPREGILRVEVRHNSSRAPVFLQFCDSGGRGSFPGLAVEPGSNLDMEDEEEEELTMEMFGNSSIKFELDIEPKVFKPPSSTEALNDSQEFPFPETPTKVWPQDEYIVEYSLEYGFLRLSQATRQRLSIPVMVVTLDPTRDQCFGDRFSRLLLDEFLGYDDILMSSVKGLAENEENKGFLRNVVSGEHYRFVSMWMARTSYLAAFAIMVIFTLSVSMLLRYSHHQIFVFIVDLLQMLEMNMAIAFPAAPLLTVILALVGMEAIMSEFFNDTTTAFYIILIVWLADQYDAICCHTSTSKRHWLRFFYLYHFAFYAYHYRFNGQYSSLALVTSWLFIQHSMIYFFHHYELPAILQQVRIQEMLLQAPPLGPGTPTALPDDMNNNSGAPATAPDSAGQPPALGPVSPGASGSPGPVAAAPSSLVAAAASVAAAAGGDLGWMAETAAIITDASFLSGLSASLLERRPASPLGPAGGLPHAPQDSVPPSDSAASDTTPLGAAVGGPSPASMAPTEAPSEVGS
UniProt P82094: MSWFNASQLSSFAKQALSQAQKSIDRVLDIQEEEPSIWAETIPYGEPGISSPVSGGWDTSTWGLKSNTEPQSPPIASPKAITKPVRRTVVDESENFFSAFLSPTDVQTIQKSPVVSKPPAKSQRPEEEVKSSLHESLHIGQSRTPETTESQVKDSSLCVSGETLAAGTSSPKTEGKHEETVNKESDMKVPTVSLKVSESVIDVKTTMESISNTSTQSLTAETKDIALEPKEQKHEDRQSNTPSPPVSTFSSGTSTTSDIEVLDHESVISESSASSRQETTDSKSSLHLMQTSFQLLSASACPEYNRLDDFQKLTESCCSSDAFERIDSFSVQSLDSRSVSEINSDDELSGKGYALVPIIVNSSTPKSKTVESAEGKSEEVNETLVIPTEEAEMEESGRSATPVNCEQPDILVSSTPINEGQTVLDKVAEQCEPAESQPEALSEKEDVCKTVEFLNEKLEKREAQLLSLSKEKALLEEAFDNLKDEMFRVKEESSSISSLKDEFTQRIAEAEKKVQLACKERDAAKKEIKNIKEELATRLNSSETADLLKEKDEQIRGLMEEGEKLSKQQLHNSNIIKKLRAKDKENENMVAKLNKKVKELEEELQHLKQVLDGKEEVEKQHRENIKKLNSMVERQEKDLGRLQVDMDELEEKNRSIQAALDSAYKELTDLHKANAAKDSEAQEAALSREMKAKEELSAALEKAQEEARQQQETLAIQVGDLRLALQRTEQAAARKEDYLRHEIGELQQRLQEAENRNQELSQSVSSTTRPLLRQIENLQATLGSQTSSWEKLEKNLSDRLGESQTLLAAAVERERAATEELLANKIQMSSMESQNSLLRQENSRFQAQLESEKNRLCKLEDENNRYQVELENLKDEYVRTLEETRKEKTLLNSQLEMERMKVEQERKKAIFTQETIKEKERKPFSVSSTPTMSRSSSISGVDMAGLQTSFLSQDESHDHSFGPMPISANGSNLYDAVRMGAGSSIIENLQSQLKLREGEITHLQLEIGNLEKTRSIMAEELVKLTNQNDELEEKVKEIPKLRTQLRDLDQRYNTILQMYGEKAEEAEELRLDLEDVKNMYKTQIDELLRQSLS
UniProt Q9NYL9: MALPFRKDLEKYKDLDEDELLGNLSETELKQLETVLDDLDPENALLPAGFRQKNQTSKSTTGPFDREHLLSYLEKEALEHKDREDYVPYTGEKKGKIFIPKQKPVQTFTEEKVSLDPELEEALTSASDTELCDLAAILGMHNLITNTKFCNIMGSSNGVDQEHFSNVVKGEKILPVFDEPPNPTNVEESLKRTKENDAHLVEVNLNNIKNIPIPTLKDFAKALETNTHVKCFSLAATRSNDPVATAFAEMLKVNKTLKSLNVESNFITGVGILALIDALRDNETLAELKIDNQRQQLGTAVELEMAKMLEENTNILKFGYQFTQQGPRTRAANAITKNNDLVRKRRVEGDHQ
UniProt Q9Y320, whole entry, looked up: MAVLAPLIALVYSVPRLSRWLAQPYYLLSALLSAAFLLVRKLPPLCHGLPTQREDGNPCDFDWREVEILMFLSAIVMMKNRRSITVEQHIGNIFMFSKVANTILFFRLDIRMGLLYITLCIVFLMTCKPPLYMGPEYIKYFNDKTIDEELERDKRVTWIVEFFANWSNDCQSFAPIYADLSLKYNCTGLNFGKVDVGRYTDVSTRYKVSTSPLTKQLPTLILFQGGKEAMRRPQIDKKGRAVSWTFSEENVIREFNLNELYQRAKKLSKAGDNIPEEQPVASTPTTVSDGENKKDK

What was measured:
Assay in all cases: log2 fold change, soluble protein after heating vs DMSO (PISA); higher = thermal stabilisation; K562 cells, 10 uM, 30 min; active = over 0.2 and 3.5 SD of the protein, either way, in both replicates (recomputed)
[1] = compound: NC(=O)Nc1cc(-c2cccc(F)c2)sc1C(=O)N[C@H]1CCCNC1
Summary of the method: (§1)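 K562 cells at 2×10^6 cells/mL were given 10 μM compound for 30 min. Aliquots then went through 3 min of heating across 48°C-58°C, were pooled, and were extracted in PBS with 0.5% NP-40 at 4°C, and the supernatant after 21,000xg for 90 min was quantified by TMTpro 16plex LC-MS/MS with channel sums equalised. Thermal stability relative to control samples, from duplicates, is given as log2 fold change.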

[2] = compound: NC(=O)c1cnc(N[C@@H]2CCCC[C@@H]2N)nc1Nc1cccc(-n2nccn2)c1
Summary of the method: as §1

[3] = compound: NC1(c2ccc(-c3nc4ccn5c(=O)[nH]nc5c4cc3-c3ccccc3)cc2)CCC1
Summary of the method: as §1

[4] = compound: NCC(=O)Nc1ccc(-n2nc(C(F)(F)F)cc2-c2ccc3c(ccc4ccccc43)c2)cc1
Summary of the method: as §1

[5] = compound: Nc1ccccc1NC(=O)c1ccc(CNC(=O)OCc2cccnc2)cc1 [entinostat]
Summary of the method: as §1

[6] = compound: O=C(CCCCCCC(=O)Nc1ccccc1)NO [vorinostat]
Summary of the method: as §1

[7] = compound: O=C(CCCCCCNC(=O)c1cnc(N(c2ccccc2)c2ccccc2Cl)nc1)NO [citarinostat]
Summary of the method: as §1

[8] = compound: O=C(O)c1ccc2c(c1)nc(Nc1cccc(Cl)c1)c1ccncc12 [silmitasertib]
Summary of the method: as §1

[9] = compound: O=C1NC(=O)C(c2cnc3ccccn23)=C1c1cn2c3c(cc(F)cc13)CN(C(=O)N1CCCCC1)CC2
Summary of the method: as §1

[10] = compound: c1cc(OCCN2CCCCC2)cc(-c2n[nH]c3ccc(-c4nnc[nH]4)cc23)c1
Summary of the method: as §1

[11] = compound: c1cn2cc(-c3ccc4cn[nH]c4c3)nc(Nc3ccc(N4CCOCC4)cc3)c2n1 [entospletinib]
Summary of the method: as §1

Measured: log2 fold change

TMPO isoform 2 (UniProt P42167)
inactive: [1] 0.049 | [2] 0.008 | [3] 0.058 | [4] -0.078 | [5] -0.247 | [6] 0.22 | [7] 0.035 | [8] -0.005 | [9] -0.084 | [10] -0.016 | [11] 0

TM2D3 (UniProt Q9BRN9)
inactive: [1] -0.064 | [2] -0.227 | [3] -0.151 | [4] -0.079 | [5] 0.062 | [6] -0.077 | [7] -0.042 | [8] 0.104 | [9] 0 | [10] -0.223 | [11] -0.161

TMEM135 (UniProt Q86UB9)
inactive: [1] -0.029 | [2] -0.06 | [3] -0.051 | [4] 0.044 | [5] -0.025 | [6] -0.073 | [7] -0.02 | [8] 0.02 | [9] -0.025 | [10] -0.122 | [11] 0.039

TNFRSF10B (UniProt O14763)
inactive: [1] -0.039 | [2] -0.078 | [3] 0.034 | [4] -0.086 | [5] -0.041 | [6] -0.081 | [7] 0.044 | [8] -0.052 | [9] 0.049 | [10] -0.002 | [11] -0.05

TMPO (UniProt P42167)
inactive: [1] -0.016 | [2] 0.003 | [3] 0.014 | [4] -0.01 | [5] -0.005 | [6] 0.029 | [7] -0.007 | [8] 0.064 | [9] 0.007 | [10] -0.013 | [11] -0.073

TMEM63A (UniProt O94886)
inactive: [1] -0.048 | [2] 0.207 | [3] 0.002 | [4] 0.088 | [5] -0.099 | [6] -0.066 | [7] -0.027 | [8] -0.032 | [9] -0.042 | [10] -0.022 | [11] 0.019

TMEM248 (UniProt Q9NWD8)
inactive: [1] -0.099 | [2] -0.054 | [3] 0.002 | [4] -0.051 | [5] -0.043 | [6] -0.059 | [7] 0.051 | [8] -0.038 | [9] 0.076 | [10] -0.112 | [11] -0.11

TMED10 (UniProt P49755)
inactive: [1] -0.053 | [2] -0.047 | [3] -0.012 | [4] 0.035 | [5] -0.013 | [6] 0.021 | [7] -0.04 | [8] -0.021 | [9] -0.038 | [10] 0.006 | [11] 0.036

TMEM38B (UniProt Q9NVV0)
inactive: [1] -0.073 | [2] -0.074 | [3] -0.001 | [4] -0.151 | [5] -0.041 | [6] -0.026 | [7] 0.033 | [8] 0.028 | [9] -0.011 | [10] -0.048 | [11] 0.02

TMEM43 (UniProt Q9BTV4)
inactive: [1] 0.02 | [2] 0 | [3] -0.083 | [4] 0.042 | [5] 0.013 | [6] 0.05 | [7] 0.013 | [8] 0.022 | [9] 0.032 | [10] -0.077 | [11] -0.004

TMED4 (UniProt Q7Z7H5)
inactive: [1] -0.015 | [2] -0.039 | [3] 0 | [4] -0.054 | [5] 0.003 | [6] -0.027 | [7] -0.122 | [8] -0.009 | [9] -0.013 | [10] 0.061 | [11] 0.047

TMEM87A (UniProt Q8NBN3)
inactive: [1] -0.068 | [2] 0.014 | [3] -0.063 | [4] -0.033 | [5] -0.007 | [6] -0.01 | [7] 0.016 | [8] 0.04 | [9] -0.017 | [10] -0.014 | [11] 0.035

TMX3 (UniProt Q96JJ7)
inactive: [1] 0.173 | [2] -0.01 | [3] -0.035 | [4] -0.016 | [5] 0.061 | [6] 0.027 | [7] 0.01 | [8] 0.02 | [9] -0.021 | [10] -0.037 | [11] -0.007

TMED1 (UniProt Q13445)
inactive: [1] 0.021 | [2] 0.113 | [3] -0.053 | [4] 0.022 | [5] 0.041 | [6] -0.041 | [7] 0.054 | [8] -0.001 | [9] -0.009 | [10] 0.068 | [11] -0.022

TMPO (UniProt P42166)
inactive: [1] -0.043 | [2] -0.088 | [3] -0.139 | [4] -0.054 | [5] 0.075 | [6] 0.123 | [7] 0.072 | [8] 0.078 | [9] -0.128 | [10] 0.001 | [11] -0.028

TMEM245 (UniProt Q9H330)
inactive: [1] -0.016 | [2] 0.02 | [3] -0.039 | [4] 0.003 | [5] 0.013 | [6] -0.085 | [7] 0.029 | [8] 0.001 | [9] 0.023 | [10] 0.014 | [11] -0.096

TMA16 (UniProt Q96EY4)
inactive: [1] 0.101 | [2] 0.101 | [3] 0.214 | [4] 0.091 | [5] -0.134 | [6] -0.031 | [7] -0.066 | [8] 0.163 | [9] 0.149 | [10] -0.278 | [11] 0.063

TMED9 (UniProt Q9BVK6)
inactive: [1] -0.014 | [2] 0.023 | [3] -0.036 | [4] -0.011 | [5] -0.029 | [6] -0.058 | [7] 0.016 | [8] -0.029 | [9] 0.023 | [10] -0.076 | [11] 0.008

TMEM259 (UniProt Q4ZIN3)
inactive: [1] -0.014 | [2] -0.046 | [3] -0.035 | [4] -0.018 | [5] 0.009 | [6] 0.047 | [7] 0.021 | [8] 0.05 | [9] 0.031 | [10] -0.005 | [11] -0.048

TMLHE isoform 8 (UniProt Q9NVH6)
inactive: [1] 0.091 | [2] -0.044 | [3] -0.103 | [4] -0.086 | [5] -0.042 | [6] 0.005 | [7] 0.043 | [8] -0.051 | [9] 0.003 | [10] -0.03 | [11] -0.026

TMEM11 (UniProt P17152)
inactive: [1] -0.038 | [2] 0.022 | [3] -0.096 | [4] -0.026 | [5] -0.012 | [6] -0.007 | [7] -0.059 | [8] 0.018 | [9] -0.02 | [10] -0.035 | [11] 0.011

TMF1 (UniProt P82094)
inactive: [1] 0.018 | [2] -0.009 | [3] -0.022 | [4] -0.016 | [5] -0.002 | [6] -0.013 | [7] 0.034 | [8] 0.058 | [9] -0.026 | [10] -0.025 | [11] 0.018

TMEM167B (UniProt Q9NRX6)
inactive: [1] -0.011 | [3] 0.023 | [4] -0.018 | [5] -0.005 | [6] -0.079 | [7] 0.003 | [8] 0.085 | [10] -0.126 | [11] 0.025

TMOD3 (UniProt Q9NYL9)
inactive: [1] -0.031 | [2] 0.041 | [3] -0.037 | [4] 0 | [5] 0.017 | [6] 0.057 | [7] 0.016 | [8] 0.079 | [9] 0.007 | [10] -0.027 | [11] 0.011

TMX2 (UniProt Q9Y320)
inactive: [1] -0.082 | [2] -0.117 | [3] -0.039 | [4] -0.064 | [5] 0.015 | [6] 0.018 | [7] 0.046 | [8] -0.002 | [9] -0.043 | [10] -0.04 | [11] -0.033

Copied from the entries so far (two entries):
TMOD3 (UniProt Q9NYL9)
inactive: [1] -0.031 | [2] 0.041 | [3] -0.037 | [4] 0 | [5] 0.017 | [6] 0.057 | [7] 0.016 | [8] 0.079 | [9] 0.007 | [10] -0.027 | [11] 0.011

TMX2 (UniProt Q9Y320)
inactive: [1] -0.082 | [2] -0.117 | [3] -0.039 | [4] -0.064 | [5] 0.015 | [6] 0.018 | [7] 0.046 | [8] -0.002 | [9] -0.043 | [10] -0.04 | [11] -0.033

Remaining list, next part

TMEM68 (UniProt Q96MH6)
inactive: [1] 0.125 | [2] 0.049 | [3] -0.021 | [4] 0.024 | [5] -0.026 | [6] -0.012 | [7] 0.027 | [8] 0.055 | [9] -0.028 | [10] -0.029 | [11] 0.04

TMEM186 (UniProt Q96B77)
inactive: [1] -0.052 | [2] -0.044 | [3] -0.065 | [4] -0.067 | [5] -0.136 | [7] 0.117 | [8] 0.041 | [9] 0.099 | [10] -0.072 | [11] -0.017
